PubChem BioAssay AID686937 | Drosophila RNAi Screening Center | 2013
Assay: 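Genes in the fly needed for secretion of protein constitutively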 (primary screen). System: Drosophila S2 cells expressing secreted horseradish peroxidase. Reagent: long dsRNA against Drosophila genes. Duration: about 5.5 days (5 days dsRNA, then 12 h reporter induction). Treatment: reporter expression induced after 5 days of dsRNA, read 12 h later; inducer not stated. Detection: 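Chemiluminescent measurement of peroxidase in the medium 12 h after reporter induction, following 5 days of dsRNA, given as a z-score per plate; higher means more secretion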. Scale: z-score: higher = more reporter secreted into medium.
In all, the deposit lists about 23,000 reagents; below is a random part of those that have a named target and a result. 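Reduced-secretion tags in replicate 1 do not always agree with the z-scores; no criterion for assigning the tags was given.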 Reagents against one gene are numbered here. Names joined by + are all predicted targets of the reagent. Not all columns of the deposit are shown. Not given: the amount of reagent.

The first 4 records, to show the layout:
Target gene | dsRNA no. | z-score, replicate 1
CG13476 | 1 | 0.15
CG15098 | 1 | -0.59
UQCR-C1 (Ubiquinol-cytochrome c reductase core protein 1) | 1 | -0.87
CG8677 | 1 | 0.37

The list itself, from the first entry:
Target gene | dsRNA no. | z-score, replicate 1
CG13476 | 1 | 0.15
CG15098 | 1 | -0.59
UQCR-C1 (Ubiquinol-cytochrome c reductase core protein 1) | 1 | -0.87
CG8677 | 1 | 0.37
l(2)10685 (lethal (2) 10685) | 1 | 0.25
Taf6 (TBP-associated factor 6) | 1 | 0.25
CG12863 | 1 | 0.12
ODA-Dnal1 (Outer dynein arm dynein axonemal light chain 1) | 1 | -0.01
Act87E (Actin 87E) | 1 | -0.02
fog (folded gastrulation) | 1 | 0.34
CG8665 | 1 | 0.54
E5 | 1 | -1.32
E5 | 2 | -1.82
tbrd-2 | 1 | 0.3
CG8620 | 1 | 0.53
CG10139 | 1 | 0.48
AgmNAT (Agmatine N-acetyltransferase) | 1 | 0.19
Or92a (Odorant receptor 92a) | 1 | 0.21
Pu (Punch) | 1 | 0.02
Fnta (Farnesyl transferase alpha subunit) | 1 | 0.29
Crtc (CREB-regulated transcription coactivator) | 1 | -2.93
Nsf2 (N-ethylmaleimide-sensitive factor 2) | 1 | 0.51
Ufsp2 (UFM1 specific peptidase 2) | 1 | 0.32
eIF3c (eukaryotic translation initiation factor 3 subunit c) | 1 | -3.14
CG33340 | 1 | 0.44
Picot | 1 | 0.1
lectin-46Cb | 1 | 0.18
Mi-2 + Su(Tpl) | 1 | 0.6
CG11044 | 1 | 0.14
CG14229 | 1 | -2.72
CG13796 + CG31904 | 1 | -0.05
deltaCOP (Coat Protein (coatomer) delta) | 1 | -6.53
Grl58a (Gustatory receptor-like 58a) | 1 | 0.02
jim | 1 | 0.25
CG34375 | 1 | 0.28
CG34375 | 2 | 0.36
CG11444 | 1 | 0.57
Vps16B (Vacuolar protein sorting 16B) | 1 | 0.28
CG9062 | 1 | 0.29
Fib (Fibrillarin) | 1 | -0.17
Hug (Hugin) | 1 | 0.36
Obp56c (Odorant-binding protein 56c) | 1 | 0.19
Obp56c (Odorant-binding protein 56c) | 2 | 0.56
CG15353 | 1 | 0.41
CG14367 | 1 | 0.21
hydra | 1 | 0.17
jdp | 1 | 0.47
ghi (ghiberti) | 1 | -7.14
Ir60b (Ionotropic receptor 60b) | 1 | 0.3
CG33255 (retired record) + hpRNA:CR32205 + CR42838 | 1 | -1.15
CG15631 | 1 | 0.1
Or85a (Odorant receptor 85a) | 1 | 0.35
TwdlP (TweedleP) | 1 | 0.53
Blm (Bloom syndrome helicase) | 1 | -0.09
e(y)2b (enhancer of yellow 2b) | 1 | 0.09
Usp5 (Ubiquitin specific protease 5) | 1 | -0.21
CG7255 | 1 | 0.43
Pkc98E (Protein C kinase 98E) | 1 | 0.12
mRpS29 (mitochondrial ribosomal protein S29) | 1 | 0.25
az2 | 1 | 0.34
Dso1 (Daisho1) | 1 | 0.64
unc-13 | 1 | 0.21
unc-13 | 2 | -0.34
unc-13 | 3 | 0.18
Arp5 (Actin-related protein 5) | 1 | 0.58
CG8097 | 1 | 0.23
pico | 1 | -0.22
Usp10 (Ubiquitin specific protease 10) | 1 | 0.32
Usp10 (Ubiquitin specific protease 10) | 2 | 0.35
Rh7 (Rhodopsin 7) | 1 | 0.21
cn (cinnabar) | 1 | -0.07
CG8745 | 1 | 0.41
CG8745 | 2 | 0.49
CG8745 | 3 | 0.69
PIG-H + Kmn2 | 1 | -1.82
Ugt303B3 (UDP-glycosyltransferase family 303 member B3) | 1 | 0.44
CG8774 | 1 | 0.27
CG14711 + Zaf1 | 1 | -0.05
GMF (Glia maturation factor) | 1 | 0.39
skl (sickle) | 1 | -0.05
robl22E | 1 | 0.04
CG4887 | 1 | -0.03
CG4887 | 2 | -0.72
